Reference: PubChem BioAssay AID493014 (National Center for Advancing Translational Sciences (NCATS), 2011)
Several values for one entry are separate records, joined by “and”; a condition that tells them apart may be missing. Equal values may be shown once. The list shows a part of the results. These are further read-outs of the screen, such as a control signal, another cell line or another target. No call is given for them. Most of these compounds were active or inconclusive in the main read-out, so they are no random draw. Words in brackets tell the shape of the fitted curve; partial curves, single points and poor fits give uncertain potencies.

Test: qHTS Assay to Find Inhibitors of Chronic Active B-Cell Receptor Signaling
Conditions: ABC-DLBCL IkBa-CBG/CBR reporter, luminescence ratio (green luciferase fused to IkBa over red control in TMD8 lymphoma cells), 4 h
Summary of the method: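 TMD8 human ABC-DLBCL cells with doxycycline-inducible IκBα–green luciferase fusion and unfused red luciferase, in 0.5% FBS medium; compounds up to 46 uM, 4 h at 37C. Green/red luminescence ratio, filter-overlap corrected, fitted to concentration-response curves.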

[1] = measured here: CBR red luminescence, cell number
[2] = measured here: IkBa-CBG green luminescence

Q: With `CC(C)CCn1cnc2c([nH]c3cccc(Cl)c32)c1=O` as the compound, how does the AC50 [1] read?
A: 0.501 µM [rising, partial curve, poor fit]

Q: Which AC50 [1] does the source give for `CCOC(=O)C1=C(c2ccccc2)NC(SCC(=O)Nc2cccc(C)c2)=C(C#N)C1c1ccco1` (centres undefined) here?
A: 2.24 µM [falling, partial curve, poor fit]

Q: For `O=C(O)c1cccc(S(=O)(=O)N2CCCC(c3nc4c(nnn4Cc4ccccc4Cl)c(=O)[nH]3)C2)c1` (centres undefined), which AC50 [1] is on record?
A: 35.5 µM [falling, single point]

Q: With `COCCn1c(SCC(=O)c2[nH]c(C)c(C(C)=O)c2C)nc2ccccc21` as the compound, how does the AC50 [1] read?
A: 0.58 µM [rising, full curve, poor fit]

Q: Which AC50 [1] does the source give for `c1ccc(CNCC2COc3ccccc3O2)cc1` (centres undefined) here?
A: 16.4 µM [rising, single point]

Q: With `CNC(=O)c1c(Cl)cnn1-c1ccccc1` as the compound, how does the AC50 [1] read?
A: 35.5 µM [rising, single point]

Q: Which AC50 [1] does the source give for `O=C(Nc1ccc(F)cc1)c1nc(S(=O)(=O)Cc2ccccc2)ncc1Cl` here?
A: 6.31 µM [falling, full curve]

Q: For `O=C(Nc1cc(-c2ccccc2)[nH]n1)c1ccccc1`, which AC50 [1] is on record?
A: 0.794 µM [falling, full curve]

Q: With `CC(NC(=O)c1ccc(F)cc1)C(c1cccs1)N1CCN(C)CC1` (centres undefined) as the compound, how does the AC50 [1] read?
A: 0.13 µM [rising, full curve, poor fit]

Q: Which AC50 [1] does the source give for `Fc1cccc(CSc2nnc3c(n2)[nH]c2ccccc23)c1` here?
A: 0.631 µM [rising, full curve, poor fit]

Q: For `O=C(O)c1cc(S(=O)(=O)Nc2ccc3cn[nH]c3c2)ccc1Br`, which AC50 [1] is on record?
A: 29.1 µM [falling, single point]

Q: Which AC50 [1] does the source give for `Cc1ccc(C(=O)Nc2ccc(SC(F)F)cc2)s1` here?
A: 15.8 µM [falling, single point]

Q: Which AC50 [1] does the source give for `CCOC(=O)N1CCC(NC(=O)CSCc2nc(-c3ccc(OCC)cc3)oc2C)CC1` here?
A: 35.5 µM [falling, single point]

Q: Which AC50 [1] does the source give for `Cc1cccc(NC(=O)[C@H](NC(=O)[C@@H]2Cc3ccccc3CN2)c2ccccc2)c1` here?
A: 12.6 µM [falling, partial curve, poor fit]

Q: For `CCCN1CNc2c(c(=O)[nH]c(=S)n2-c2ccccc2Cl)C1`, which AC50 [1] is on record?
A: 35.5 µM [rising, single point]

Q: For `O=[N+]([O-])c1ccc(Cl)cc1N1CCCC1`, which AC50 [1] is on record?
A: 15.8 µM [rising, single point]

Q: Which results are given for `c1ccc(C2=NNC(c3ccccn3)=NN2)nc1`?
A: AC50 [1]: 2.82 µM [falling, full curve]; AC50 [2]: 3.55 µM [rising, single point]

Q: Which AC50 [1] does the source give for `COc1cc(/C=N/NC(=O)c2cc3ccccc3[nH]2)ccc1O` here?
A: 10 µM [falling, partial curve]

Q: With `CCc1cccc2c3c([nH]c12)C(CC)(CC(=O)O)OCC3` (centres undefined) as the compound, how does the AC50 [1] read?
A: 0.0058 µM [rising, full curve, poor fit]

Q: With `COc1ccc(NC(=O)c2cnc(SCC(=O)Nc3nc4ccc(C)cc4s3)n(C)c2=O)cc1` as the compound, how does the AC50 [1] read?
A: 4.47 µM [falling, single point]

Q: Which AC50 [1] does the source give for `CSc1nsc(SCC(=O)Nc2nncs2)n1` here?
A: 35.5 µM [falling, single point]

Q: With `CC(C)C(=O)Nc1ccc2c(c1)oc1ccccc12` as the compound, how does the AC50 [1] read?
A: 16.4 µM [falling, single point]

Q: For `O=C(Nc1cccc(F)c1)Nc1ccc2c(c1)OCO2`, which AC50 [1] is on record?
A: 20 µM [falling, single point]

Q: Which AC50 [1] does the source give for `Cc1ccc(C(=O)N(Cc2nc3ccccc3c(=O)[nH]2)C2CCCC2)cc1` here?
A: 12.6 µM [falling, partial curve]

Q: For `Oc1c(Cl)cc(Cl)cc1/C=N/NC(=S)NC1CC2C=CC1C2` (centres undefined), which AC50 [1] is on record?
A: 12.6 µM [falling, partial curve]

Q: With `O=C(Nc1ccc(Br)cc1)c1cccc(S(=O)(=O)Nc2ccccn2)c1` as the compound, how does the AC50 [1] read?
A: 35.5 µM [falling, single point]

Q: For `CCCc1sc(N/N=C/c2ccccn2)nc1-c1ccc(Br)cc1`, which AC50 [1] is on record?
A: 13 µM [rising, partial curve]

Q: Which AC50 [1] does the source give for `O=C(CCc1ccccc1)NCC(c1ccco1)N1CCc2ccccc21` (centres undefined) here?
A: 18.4 µM [rising, partial curve]

Q: And the AC50 [2]?
A: 18.4 µM [falling, single point]

Q: Which AC50 [1] does the source give for `Cc1ccnc(N2CCC(C(=O)Nc3cccc(C(F)(F)F)c3)CC2)n1` here?
A: 22.4 µM [falling, partial curve, poor fit]

Q: With `O=C(NC(=S)Nc1cccnc1Cl)c1ccco1` as the compound, how does the AC50 [1] read?
A: 12.6 µM [falling, partial curve]

Q: For `Cc1ccc(Nc2nc3c([nH]2)c(=O)[nH]c(=O)n3C)cc1`, which AC50 [1] is on record?
A: 1.84 µM [falling, single point]

Q: For `Cc1oc2c(C)c3oc(=O)c4c(c3cc2c1C)CCCC4`, which AC50 [1] is on record?
A: 0.562 µM [falling, full curve]

Q: Which AC50 [1] does the source give for `O=C(CSCc1ccc(F)cc1)N1CCN(c2ccccc2)CC1` here?
A: 3.98 µM [rising, full curve, poor fit] and 22.4 µM [rising, single point]

Q: With `CCCCC(=O)O[C@]1(C(=O)CO)CC[C@H]2[C@@H]3CCC4=CC(=O)CC[C@]4(C)[C@H]3[C@@H](O)C[C@@]21C` as the compound, how does the AC50 [1] read?
A: 25.9 µM [rising, partial curve, poor fit]

Q: And the AC50 [2]?
A: 23.1 µM [falling, partial curve, poor fit]

Q: Which AC50 [1] does the source give for `CC(=O)c1ccc(N2CCN(c3ccc(S(=O)(=O)NCCCN(C)C)cc3[N+](=O)[O-])CC2)cc1` here?
A: 22.4 µM [falling, single point]

Q: For `CC(C)OC(=O)c1cc(=O)[nH]c2ccccc12`, which AC50 [1] is on record?
A: 5.01 µM [rising, full curve]

Q: With `Cc1ccc(NC(=O)CSc2ncc3ccccn23)cc1` as the compound, how does the AC50 [1] read?
A: 0.891 µM [rising, full curve, poor fit]

Q: For `CCOC(=O)C1CCN(C(=O)COC(=O)c2cc([N+](=O)[O-])ccc2N2CCOCC2)CC1`, which AC50 [1] is on record?
A: 11.6 µM [rising, partial curve, poor fit]

Q: Which results are given for `O=C1C(Cl)=C(NC(=O)c2ccccc2)C(=O)C(Cl)=C1NC(=O)c1ccccc1`?
A: AC50 [1]: 35.5 µM [falling, single point]; AC50 [2]: 3.55 µM [falling, single point]

Q: With `Cc1ccc(-n2nc3cc(Cl)c(NC(=O)c4ccco4)cc3n2)cc1` as the compound, how does the AC50 [1] read?
A: 16.4 µM [rising, partial curve, poor fit]

Q: Which AC50 [1] does the source give for `O=C(OCc1cc(=O)n2ccsc2n1)c1ccccc1O` here?
A: 20.6 µM [falling, single point]

Q: With `CC(C)CCn1c(N)c(S(=O)(=O)c2cccs2)c2nc3ccccc3nc21` as the compound, how does the AC50 [1] read?
A: 23.1 µM [falling, partial curve]

Q: With `CCCC(=O)NCCc1cc2ccc(OC)cc2[nH]c1=O` as the compound, how does the AC50 [1] read?
A: 25.9 µM [falling, single point]

Q: With `CCOC(=O)CSc1nnc(-c2c[nH]c3ccccc23)o1` as the compound, how does the AC50 [1] read?
A: 10 µM [falling, partial curve]

Q: With `CC(C)Cc1cc(C(=O)Nc2cccnc2)no1` as the compound, how does the AC50 [1] read?
A: 23.1 µM [falling, partial curve, poor fit]

Q: With `Cc1c(C(=O)CN2CCSCC2)c2ccccc2n1C` as the compound, how does the AC50 [1] read?
A: 7.08 µM [rising, full curve, poor fit]

Q: Which AC50 [1] does the source give for `CC(N=C(NS(=O)(=O)c1ccc(Cl)cc1)c1ccccc1)C(=O)O` (centres undefined) here?
A: 1.84 µM [rising, partial curve, poor fit]

Q: Which AC50 [1] does the source give for `COc1ccccc1/C=N/NC(=O)CCn1cnc2ccccc21` here?
A: 5.8 µM [falling, partial curve]

Q: For `O=C(c1ccccc1)C1CCN(c2ncccc2[N+](=O)[O-])CC1`, which AC50 [1] is on record?
A: 0.282 µM [rising, full curve, poor fit]

Q: For `O=C(N/N=C/c1ccsc1)c1c[nH]c2ccccc12`, which AC50 [1] is on record?
A: 10 µM [falling, partial curve]

Q: For `CC(C)CCc1noc(CN2CCC(CCN3CCCC3=O)CC2)n1`, which AC50 [1] is on record?
A: 15.8 µM [rising, single point]

Q: Which AC50 [1] does the source give for `Cn1c(/C=C/c2ccc(Br)cc2)c([N+](=O)[O-])c(=O)n(C)c1=O` here?
A: 6.31 µM [falling, full curve, poor fit]

Q: Which AC50 [1] does the source give for `O=S(=O)(NCC(Nc1ccccc1)c1ccccc1)c1ccc(Cl)cc1` (centres undefined) here?
A: 20.6 µM [falling, single point]

Q: What does the source list for `CCCCCCCCCn1c2c(c(=N)c3c1CCC3)CCCC2`?
A: AC50 [1]: 12.6 µM [falling, partial curve]; AC50 [2]: 10 µM [rising, partial curve, poor fit]

Q: With `CCCc1nnc(NC(=O)c2ccc([N+](=O)[O-])cc2)s1` as the compound, how does the AC50 [1] read?
A: 1.64 µM [falling, full curve, poor fit]

Q: With `CC(C)c1ccc(C2=CC(c3cccc(Cl)c3)n3ncnc3N2)cc1` (centres undefined) as the compound, how does the AC50 [1] read?
A: 22.4 µM [falling, single point]

Q: Which AC50 [1] does the source give for `Cc1cccc(NCc2ccccc2O)c1` here?
A: 0.326 µM [rising, partial curve, poor fit]

Q: For `O=C(NCc1cccnc1)C(=O)Nc1cc2c3c(c1)CC(=O)N3CCC2`, which AC50 [1] is on record?
A: 14.6 µM [rising, partial curve]

Q: For `O=C(CC1SC(=O)N(c2ccccc2)C1=O)Nc1ccc(Cl)cc1` (centres undefined), which AC50 [1] is on record?
A: 3.55 µM [falling, partial curve]

Q: Which AC50 [1] does the source give for `COc1ccc(OC)c2sc(NC(=O)c3ccc(S(=O)(=O)N(C)C)cc3)nc12` here?
A: 0.164 µM [falling, full curve, poor fit]

Q: With `CCSc1nc(C)nc2sc(C)c(C)c12` as the compound, how does the AC50 [1] read?
A: 15.8 µM [rising, partial curve, poor fit]

Q: With `NC(=O)NC(=O)C(Nc1ccc(N2CCCCC2)cc1)c1ccccc1` (centres undefined) as the compound, how does the AC50 [1] read?
A: 5.01 µM [falling, partial curve]

Q: Which AC50 [1] does the source give for `Cc1cc(C)c2c(CN3CCC(C)CC3)cc(=O)oc2c1` here?
A: 7.08 µM [rising, partial curve, poor fit]

Q: With `COc1ccc(OC)c(CNc2nc3ccccc3n2CCN2CCCCC2)c1` as the compound, how does the AC50 [1] read?
A: 32.6 µM [falling, single point]
